Experimental data reported in patent publication US20190151329A1, “THERAPEUTIC USE OF DIAMINOPHENOTHIAZINES” (WisTa Laboratories Ltd., priority 2007, published 2019).
For at least one compound, name, drawing or mass did not settle the structure.

Assay: Integrated pharmacokinetic model, human oral model
Conditions: 100 mg case

SMILES: CN(C)c1ccc2nc3ccc(=[N+](C)C)cc-3sc2c1 [MTC, methylthioninium chloride]
- share of total pre-central loss due to non-absorption from C1: 43%
- total pre-central compartment losses: 54 % of the administered dose
